# Laboratory results taken from article PMC12242688.
# Chains of the proteins cited; added tags and fusions are not shown. Lines headed by an entry give the natural chain unless they say otherwise; changes in a name come on top. A line that says so, or that is headed by a name, gives the form on record, which may keep a tag or linker. Residues count along the entry.
# Recombinant His-tagged ApoE3 wild-type (source not stated for the experiment) (P02649, residues 19-317): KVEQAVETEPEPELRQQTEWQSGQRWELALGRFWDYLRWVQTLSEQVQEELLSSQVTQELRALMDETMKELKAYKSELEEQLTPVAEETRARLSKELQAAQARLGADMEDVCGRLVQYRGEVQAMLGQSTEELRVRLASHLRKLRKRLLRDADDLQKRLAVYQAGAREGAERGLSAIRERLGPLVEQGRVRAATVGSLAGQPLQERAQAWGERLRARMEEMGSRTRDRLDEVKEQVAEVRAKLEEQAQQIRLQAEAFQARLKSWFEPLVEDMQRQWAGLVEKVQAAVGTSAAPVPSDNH
# Recombinant His-tagged ApoE3 Christchurch variant (source not stated for the experiment) (P02649, form named): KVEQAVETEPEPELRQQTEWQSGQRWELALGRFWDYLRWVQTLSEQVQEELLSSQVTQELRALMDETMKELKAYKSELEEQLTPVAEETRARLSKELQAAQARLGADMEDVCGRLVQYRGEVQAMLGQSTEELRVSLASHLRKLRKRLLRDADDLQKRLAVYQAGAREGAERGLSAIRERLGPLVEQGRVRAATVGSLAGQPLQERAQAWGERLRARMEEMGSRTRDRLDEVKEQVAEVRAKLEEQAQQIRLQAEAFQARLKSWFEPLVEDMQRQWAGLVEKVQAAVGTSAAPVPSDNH
# No constants are given. Whether binding was seen depends on the method and setting. Some binding calls cover weakened binding; strength is not graded here.
# T1: Recombinant human Dkk1 protein (human) (UniProt O94907)
# T1 sequence: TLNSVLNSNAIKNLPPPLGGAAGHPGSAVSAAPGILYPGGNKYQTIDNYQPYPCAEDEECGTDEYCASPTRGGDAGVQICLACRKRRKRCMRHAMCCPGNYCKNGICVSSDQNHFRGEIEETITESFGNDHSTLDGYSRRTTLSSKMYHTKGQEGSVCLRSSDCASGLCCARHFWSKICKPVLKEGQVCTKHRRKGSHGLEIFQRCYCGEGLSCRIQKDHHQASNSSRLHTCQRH
# What was measured:
# [1] = biological target: T1, Recombinant human Dkk1 protein (human); test: ITC; ApoE3 WT titrated to Dkk1 (higher concentrations of ApoE3 WT over time); conditions not told in what was shown; both purified
# [2] = biological target: Recombinant His-tagged ApoE3 wild-type (source not stated for the experiment) (human) (UniProt P02649); test: pull-down; recombinant human Dkk1 and His-tagged ApoE3 variants mixed in binding buffer, Ni-NTA magnetic beads overnight at 4°C, washed thrice with 40 mM imidazole, eluted; Western blot; both purified
# [3] = biological target: Recombinant His-tagged ApoE3 Christchurch variant (source not stated for the experiment) (human) (UniProt P02649); test: as above
Molecule,binding [1],binding [2],binding [3]
Recombinant His-tagged ApoE3 wild-type (source not stated for the experiment) (from UniProt P02649 19-317),binds weakly,,
"Recombinant human Dkk1 protein (protein, UniProt O94907 32-266) TLNSVLNSNAIKNLPPPLGGAAGHPGSAVSAAPGILYPGGNKYQTIDNYQPYPCAEDEECGTDEYCASPTRGGDAGVQICLACRKRRKRCMRHAMCCPGNYCKNGICVSSDQNHFRGEIEETITESFGNDHSTLDGYSRRTTLSSKMYHTKGQEGSVCLRSSDCASGLCCARHFWSKICKPVLKEGQVCTKHRRKGSHGLEIFQRCYCGEGLSCRIQKDHHQASNSSRLHTCQRH",,binds weakly,binds weakly
